In the supplement of paper PMC10032668:
Some of the results follow. The list holds hits alone, and they repeat only in part.

Amino acid sequences for entries named in this document (tags omitted).
CCNB1, P14635, UniProt P14635, whole entry: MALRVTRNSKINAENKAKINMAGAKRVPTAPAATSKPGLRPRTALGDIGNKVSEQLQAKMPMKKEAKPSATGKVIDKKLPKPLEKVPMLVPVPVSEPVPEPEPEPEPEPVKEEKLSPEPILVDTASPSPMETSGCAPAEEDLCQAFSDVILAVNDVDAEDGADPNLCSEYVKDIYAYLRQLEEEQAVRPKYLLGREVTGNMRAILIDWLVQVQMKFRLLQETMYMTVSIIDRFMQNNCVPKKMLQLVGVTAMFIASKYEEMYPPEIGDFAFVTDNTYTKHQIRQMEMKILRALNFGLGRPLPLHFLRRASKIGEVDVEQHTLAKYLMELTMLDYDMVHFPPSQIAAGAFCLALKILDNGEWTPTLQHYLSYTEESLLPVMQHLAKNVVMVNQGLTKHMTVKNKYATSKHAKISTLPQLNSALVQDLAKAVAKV
CSNK2B, P67870, UniProt P67870, whole entry: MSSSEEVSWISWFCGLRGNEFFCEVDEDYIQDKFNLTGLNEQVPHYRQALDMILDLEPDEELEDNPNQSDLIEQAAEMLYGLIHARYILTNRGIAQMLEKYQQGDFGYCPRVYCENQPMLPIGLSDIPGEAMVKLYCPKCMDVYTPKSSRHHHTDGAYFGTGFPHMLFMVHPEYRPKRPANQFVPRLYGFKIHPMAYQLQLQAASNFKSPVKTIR
IK, Q13123, UniProt Q13123, whole entry: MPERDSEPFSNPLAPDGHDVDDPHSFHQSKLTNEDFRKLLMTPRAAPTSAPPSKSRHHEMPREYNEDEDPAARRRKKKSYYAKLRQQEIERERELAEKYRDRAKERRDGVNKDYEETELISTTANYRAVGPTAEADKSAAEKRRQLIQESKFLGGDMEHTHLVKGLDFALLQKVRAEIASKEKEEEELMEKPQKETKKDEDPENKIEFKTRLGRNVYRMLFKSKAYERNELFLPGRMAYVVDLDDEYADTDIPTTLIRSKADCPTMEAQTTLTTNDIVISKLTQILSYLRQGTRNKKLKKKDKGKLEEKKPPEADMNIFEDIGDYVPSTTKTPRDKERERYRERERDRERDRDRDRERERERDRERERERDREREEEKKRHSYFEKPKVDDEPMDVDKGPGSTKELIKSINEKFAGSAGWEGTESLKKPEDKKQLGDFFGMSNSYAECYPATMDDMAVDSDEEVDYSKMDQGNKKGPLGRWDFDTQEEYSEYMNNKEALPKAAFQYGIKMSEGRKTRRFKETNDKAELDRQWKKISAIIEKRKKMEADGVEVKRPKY
NCAPD2, Q15021, UniProt Q15021, whole entry: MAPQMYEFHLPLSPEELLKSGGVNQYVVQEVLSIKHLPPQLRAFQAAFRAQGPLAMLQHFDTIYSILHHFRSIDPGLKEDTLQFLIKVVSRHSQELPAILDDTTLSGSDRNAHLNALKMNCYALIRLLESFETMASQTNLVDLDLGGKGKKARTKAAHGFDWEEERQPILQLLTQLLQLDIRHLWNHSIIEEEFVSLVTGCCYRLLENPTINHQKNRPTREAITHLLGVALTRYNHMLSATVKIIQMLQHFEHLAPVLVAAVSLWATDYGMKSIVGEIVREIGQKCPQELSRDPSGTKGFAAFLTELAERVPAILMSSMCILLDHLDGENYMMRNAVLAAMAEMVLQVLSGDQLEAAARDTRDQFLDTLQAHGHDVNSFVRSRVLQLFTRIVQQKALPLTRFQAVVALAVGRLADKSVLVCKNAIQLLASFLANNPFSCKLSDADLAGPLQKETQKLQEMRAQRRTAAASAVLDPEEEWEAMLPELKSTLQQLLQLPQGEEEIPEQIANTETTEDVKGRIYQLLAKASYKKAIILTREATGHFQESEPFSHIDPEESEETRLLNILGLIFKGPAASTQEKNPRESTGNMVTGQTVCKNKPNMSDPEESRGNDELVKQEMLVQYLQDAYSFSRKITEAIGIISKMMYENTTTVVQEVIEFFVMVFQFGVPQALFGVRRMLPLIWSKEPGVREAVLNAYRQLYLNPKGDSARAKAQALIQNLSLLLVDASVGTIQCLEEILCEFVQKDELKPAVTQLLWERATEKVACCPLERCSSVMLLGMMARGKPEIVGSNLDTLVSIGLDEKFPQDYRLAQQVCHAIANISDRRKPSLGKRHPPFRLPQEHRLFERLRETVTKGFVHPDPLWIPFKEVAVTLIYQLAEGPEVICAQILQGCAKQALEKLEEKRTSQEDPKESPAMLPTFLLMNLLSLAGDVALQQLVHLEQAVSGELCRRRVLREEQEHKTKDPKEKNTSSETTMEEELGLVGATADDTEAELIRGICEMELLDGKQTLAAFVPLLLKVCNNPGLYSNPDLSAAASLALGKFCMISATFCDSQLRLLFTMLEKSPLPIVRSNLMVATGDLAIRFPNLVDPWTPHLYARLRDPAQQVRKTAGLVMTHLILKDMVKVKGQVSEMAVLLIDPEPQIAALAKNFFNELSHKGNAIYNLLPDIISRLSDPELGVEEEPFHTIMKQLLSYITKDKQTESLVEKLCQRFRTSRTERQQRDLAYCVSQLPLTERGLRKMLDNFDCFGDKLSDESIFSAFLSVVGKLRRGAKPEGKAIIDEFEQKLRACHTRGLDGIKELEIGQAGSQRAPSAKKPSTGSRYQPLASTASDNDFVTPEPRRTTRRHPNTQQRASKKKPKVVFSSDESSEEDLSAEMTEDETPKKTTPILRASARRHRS
SNRPD1, P62314, UniProt P62314, whole entry: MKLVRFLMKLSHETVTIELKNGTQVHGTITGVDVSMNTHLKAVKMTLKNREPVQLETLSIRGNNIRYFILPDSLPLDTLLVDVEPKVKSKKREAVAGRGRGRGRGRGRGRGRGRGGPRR
TPM4, P67936, UniProt P67936, whole entry: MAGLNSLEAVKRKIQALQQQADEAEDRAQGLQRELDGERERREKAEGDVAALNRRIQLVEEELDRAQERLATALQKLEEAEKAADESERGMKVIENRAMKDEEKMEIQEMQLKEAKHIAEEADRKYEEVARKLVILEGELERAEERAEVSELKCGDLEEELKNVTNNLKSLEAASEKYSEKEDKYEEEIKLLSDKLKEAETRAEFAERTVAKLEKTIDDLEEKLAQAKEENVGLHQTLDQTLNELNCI

What was measured:
Assay in all cases: PRISMA enrichment of interactor (LFQ) in peptide spot vs all other peptide spots (log2 fold change); higher = stronger / more specific binding of the interactor to the peptide
ACOT9, Q9Y305 = target: ACOT9, Q9Y305
Method: (§1)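 PRISMA: 15-aa overlapping tiles (offset 8 aa) of 60 microproteins, plus SOS1/GLUT1 control peptides, were spot-synthesized on cellulose membranes in triplicate. Membranes were incubated with benzonase-treated HEK293T lysate, and bound proteins were identified by LC-MS/MS with LFQ. Enrichment is the log2 fold change of each protein in one spot versus all other spots. Only interactors passing the significance cutoff are listed.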

ARMC6, Q6NXE6 = target: ARMC6, Q6NXE6
Method: as §1

ATP5PF, P18859 = target: ATP5PF, P18859
Method: as §1

BAZ1A, Q9NRL2 = target: BAZ1A, Q9NRL2
Method: as §1

CCNB1, P14635 = target: CCNB1, P14635
Method: as §1

CMPK1, P30085 = target: CMPK1, P30085
Method: as §1

CSNK2A1, P68400 = target: CSNK2A1, P68400
Method: as §1

CSNK2B, P67870 = target: CSNK2B, P67870
Method: as §1

DCUN1D5, Q9BTE7 = target: DCUN1D5, Q9BTE7
Method: as §1

DDX47, Q9H0S4 = target: DDX47, Q9H0S4
Method: as §1

DSG2, Q14126 = target: DSG2, Q14126
Method: as §1

ENSA, O43768 = target: ENSA, O43768
Method: as §1

GPATCH4, Q5T3I0 = target: GPATCH4, Q5T3I0
Method: as §1

IK, Q13123 = target: IK, Q13123
Method: as §1

KTN1, Q86UP2 = target: KTN1, Q86UP2
Method: as §1

LLPH, Q9BRT6 = target: LLPH, Q9BRT6
Method: as §1

LPCAT3, Q6P1A2 = target: LPCAT3, Q6P1A2
Method: as §1

MAP1B, P46821 = target: MAP1B, P46821
Method: as §1

METAP1, P53582 = target: METAP1, P53582
Method: as §1

MRPS14, O60783 = target: MRPS14, O60783
Method: as §1

MRPS33, Q9Y291 = target: MRPS33, Q9Y291
Method: as §1

NCAPD2, Q15021 = target: NCAPD2, Q15021
Method: as §1

NFS1, Q9Y697 = target: NFS1, Q9Y697
Method: as §1

NUP43, Q8NFH3 = target: NUP43, Q8NFH3
Method: as §1

POLR2A, P24928 = target: POLR2A, P24928
Method: as §1

PPAN-P2RY11 = target: PPAN-P2RY11
Method: as §1

PRPF40A, O75400 = target: PRPF40A, O75400
Method: as §1

REPIN1, Q9BWE0 = target: REPIN1, Q9BWE0
Method: as §1

RPL7L1, Q6DKI1 = target: RPL7L1, Q6DKI1
Method: as §1

SAMHD1, Q9Y3Z3 = target: SAMHD1, Q9Y3Z3
Method: as §1

SBDS, Q9Y3A5 = target: SBDS, Q9Y3A5
Method: as §1

SLC35B2, Q8TB61 = target: SLC35B2, Q8TB61
Method: as §1

SMC3, Q9UQE7 = target: SMC3, Q9UQE7
Method: as §1

SMIM12, Q96EX1 = target: SMIM12, Q96EX1
Method: as §1

SNRPD1, P62314 = target: SNRPD1, P62314
Method: as §1

TFB2M, Q9H5Q4 = target: TFB2M, Q9H5Q4
Method: as §1

TIMM8B, Q9Y5J9 = target: TIMM8B, Q9Y5J9
Method: as §1

TNPO3, Q9Y5L0 = target: TNPO3, Q9Y5L0
Method: as §1

TPM4, P67936 = target: TPM4, P67936
Method: as §1

TXLNG, Q9NUQ3 = target: TXLNG, Q9NUQ3
Method: as §1

URB2, Q14146 = target: URB2, Q14146
Method: as §1

USP7, Q93009 = target: USP7, Q93009
Method: as §1

B1: NAV2-AS2_2 (peptide)
chain: SELVLPQSQAGKPLT
PRISMA enrichment of interactor (log2) (ACOT9, Q9Y305): 4.31 | PRISMA enrichment of interactor (log2) (ARMC6, Q6NXE6): 6.7 | PRISMA enrichment of interactor (log2) (ATP5PF, P18859): 4.46 | PRISMA enrichment of interactor (log2) (BAZ1A, Q9NRL2): 5.21 | PRISMA enrichment of interactor (log2) (CCNB1, P14635): 4.19 | PRISMA enrichment of interactor (log2) (CMPK1, P30085): 4.52 | PRISMA enrichment of interactor (log2) (CSNK2A1, P68400): 5.1 | PRISMA enrichment of interactor (log2) (CSNK2B, P67870): 4.46 | PRISMA enrichment of interactor (log2) (DCUN1D5, Q9BTE7): 5.07 | PRISMA enrichment of interactor (log2) (DDX47, Q9H0S4): 10.8 | PRISMA enrichment of interactor (log2) (DSG2, Q14126): 4.61 | PRISMA enrichment of interactor (log2) (ENSA, O43768): 4.63 | PRISMA enrichment of interactor (log2) (GPATCH4, Q5T3I0): 4.82 | PRISMA enrichment of interactor (log2) (IK, Q13123): 5.85 | PRISMA enrichment of interactor (log2) (KTN1, Q86UP2): 4.18 | PRISMA enrichment of interactor (log2) (LLPH, Q9BRT6): 4.64 | PRISMA enrichment of interactor (log2) (LPCAT3, Q6P1A2): 4.36 | PRISMA enrichment of interactor (log2) (MAP1B, P46821): 4.78 | PRISMA enrichment of interactor (log2) (METAP1, P53582): 5.35 | PRISMA enrichment of interactor (log2) (MRPS14, O60783): 4.97 | PRISMA enrichment of interactor (log2) (MRPS33, Q9Y291): 4.29 | PRISMA enrichment of interactor (log2) (NCAPD2, Q15021): 5.08 | PRISMA enrichment of interactor (log2) (NFS1, Q9Y697): 4.48 | PRISMA enrichment of interactor (log2) (NUP43, Q8NFH3): 5.23 | PRISMA enrichment of interactor (log2) (POLR2A, P24928): 5.12 | PRISMA enrichment of interactor (log2) (PPAN-P2RY11): 4.6 | PRISMA enrichment of interactor (log2) (PRPF40A, O75400): 6.08 | PRISMA enrichment of interactor (log2) (REPIN1, Q9BWE0): 4.24 | PRISMA enrichment of interactor (log2) (RPL7L1, Q6DKI1): 4.07 | PRISMA enrichment of interactor (log2) (SAMHD1, Q9Y3Z3): 3.92 | PRISMA enrichment of interactor (log2) (SBDS, Q9Y3A5): 4.61 | PRISMA enrichment of interactor (log2) (SLC35B2, Q8TB61): 6.27 | PRISMA enrichment of interactor (log2) (SMC3, Q9UQE7): 5.17 | PRISMA enrichment of interactor (log2) (SMIM12, Q96EX1): 4.7 | PRISMA enrichment of interactor (log2) (SNRPD1, P62314): 4.88 | PRISMA enrichment of interactor (log2) (TFB2M, Q9H5Q4): 4.79 | PRISMA enrichment of interactor (log2) (TIMM8B, Q9Y5J9): 5.48 | PRISMA enrichment of interactor (log2) (TNPO3, Q9Y5L0): 4.87 | PRISMA enrichment of interactor (log2) (TPM4, P67936): 4.2 | PRISMA enrichment of interactor (log2) (TXLNG, Q9NUQ3): 4.82 | PRISMA enrichment of interactor (log2) (URB2, Q14146): 4.59 | PRISMA enrichment of interactor (log2) (USP7, Q93009): 4.7
